Assay results as given in article doi:10.1101/2022.09.01.506260.

Target: T1, HA-tagged PEAK3^FL-S69A mutant (human) (UniProt Q6ZS72)
T1 sequence: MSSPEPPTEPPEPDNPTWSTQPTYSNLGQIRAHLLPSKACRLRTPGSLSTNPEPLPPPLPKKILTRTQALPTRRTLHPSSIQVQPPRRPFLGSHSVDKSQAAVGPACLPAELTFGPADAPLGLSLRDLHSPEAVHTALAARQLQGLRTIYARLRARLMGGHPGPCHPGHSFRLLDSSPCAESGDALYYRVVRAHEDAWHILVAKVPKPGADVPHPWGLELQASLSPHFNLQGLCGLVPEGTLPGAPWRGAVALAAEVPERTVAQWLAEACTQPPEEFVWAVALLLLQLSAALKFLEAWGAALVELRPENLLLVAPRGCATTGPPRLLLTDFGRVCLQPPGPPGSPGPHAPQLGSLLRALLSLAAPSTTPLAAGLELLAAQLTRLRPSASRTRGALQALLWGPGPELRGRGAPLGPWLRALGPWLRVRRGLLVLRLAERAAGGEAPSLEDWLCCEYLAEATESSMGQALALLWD
Assay: co-IP

For “endogenous 14-3-3 (HEK293) (human (endogenous in HEK293))”, the binding was “no binding”.

No constants are given. Whether binding was seen depends on the method and setting. In cells and extracts the contact can be indirect. Where a sequence is shown, tags or fusion partners need not be part of it.
